This assay deals with T1, Fft3-TAP (S. pombe) (UniProt O42861).
T1 sequence: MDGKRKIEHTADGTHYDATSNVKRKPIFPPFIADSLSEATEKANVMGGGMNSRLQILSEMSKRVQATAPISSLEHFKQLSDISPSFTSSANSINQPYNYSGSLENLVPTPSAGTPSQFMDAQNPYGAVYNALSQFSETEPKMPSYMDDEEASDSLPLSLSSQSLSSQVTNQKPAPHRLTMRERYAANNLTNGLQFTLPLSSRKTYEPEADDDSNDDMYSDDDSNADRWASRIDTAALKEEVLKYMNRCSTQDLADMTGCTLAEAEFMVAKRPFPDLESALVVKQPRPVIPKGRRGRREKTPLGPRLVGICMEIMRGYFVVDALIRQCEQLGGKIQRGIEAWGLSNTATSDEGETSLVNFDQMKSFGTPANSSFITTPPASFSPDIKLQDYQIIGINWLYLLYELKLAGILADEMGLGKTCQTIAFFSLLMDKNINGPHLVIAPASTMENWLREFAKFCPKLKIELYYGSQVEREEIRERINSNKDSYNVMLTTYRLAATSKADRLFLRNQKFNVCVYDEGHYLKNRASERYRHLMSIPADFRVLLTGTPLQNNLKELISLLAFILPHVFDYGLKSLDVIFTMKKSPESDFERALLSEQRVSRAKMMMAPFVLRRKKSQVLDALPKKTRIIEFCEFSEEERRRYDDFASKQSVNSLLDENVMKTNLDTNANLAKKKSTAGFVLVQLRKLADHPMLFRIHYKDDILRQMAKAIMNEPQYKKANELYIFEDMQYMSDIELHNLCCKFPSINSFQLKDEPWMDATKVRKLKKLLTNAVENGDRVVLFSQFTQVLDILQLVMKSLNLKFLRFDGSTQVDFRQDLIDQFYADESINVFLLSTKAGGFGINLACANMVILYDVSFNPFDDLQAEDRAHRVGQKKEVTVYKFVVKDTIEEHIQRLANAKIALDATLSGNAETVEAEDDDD
Nature of the assay: co-IP; lysate of S. pombe strains (double-tagged Sfc4-Myc Fft3-TAP and single-tagged controls); lysis buffer 20 mM Tris pH7.5, 150mM NaCl, 3% glycerol, 0.05% Igepal, 0.5mM EDTA, 0.5 mM DTT; IgG beads 40 min at 4°C; five washes; blot with anti-myc, then anti-TAP.

Results are given in words; binding and its absence hold for the method and conditions named. Binding seen in cells or lysates may run through a third protein. Some binding calls cover weakened binding; strength is not graded here. Where a sequence is shown, tags or fusion partners need not be part of it.

B1: Sfc4-Myc (protein, UniProt O74458 1-1006)
chain: MIQNGGNSYVDSNMNETQNDTTDNFDAEMQDLNGYISEIVDEARNVSEVDAKFLGDTSALQAEGLWSDEESDYEGSDDESNFSKTASRTEDDIANEEWEENLKAVAGFRKVRKGHKGRGRVSRADMLPSVEVQQMLSLANHLFAQEGNFDEAQKLAEEIVRIDNNVIAAWKMLGECHRQRGNGRVNIEKCLIAWMAAAHLKPKDHELWFTCAKLSESLEFWDQADYCYNRAVSAKPPNKSELKKYIWNRSVLNKEHGSLKKAAEGFKFLLQSSPYNASILKNLAEIYIKIHAPREILKQFEIAWKYFYQYPAPPIGNDIFDLPTLNLYAELLLLDHQWSNLIRLINRGVRWFRGRKSESFWDEFDDDREWDVDERRREFPNASEEHTNKEAYLLPHLFRTKLGIARLKTGELPEAELHFSVIKNLPPDYAWGMLYDIAKAYMDIERLDLALEYFVLICNHEPAQNIGLWYNMGVCYLELKEYEHAQQCMEAILIVDNSNTNALIKLAEINELQDNRDAALEIVTNIFEQRRNINELEREQSQNEDHEKNVGSQLFVGNQKVPQDKWEKRARISRSKEEARQFTIWKTEETQRRFHKLDILRQSLKKEENVSESLNEWLAIASELIDEFVSIKAFFPSEKKARARAGLLTRRTRYASLNDQLTSMINRLNDSLTRTKYGDLDLDTILRTGYFRNVSIDAWYQLFVEFSLRLTKVGSVQQAYDVLTTAMGAILFDQDTIKRQNLRWCMLACSMYARDPQGALTPLRWVFTTFQFRQDTYRLFSAVLSQGYECSRAFVDSANQKFLLRLIKLMDQLMSNSLVSGAATLVKNDDGLATVPTSYDPVLVLLYGHIMARNRSWIPAINYYSRAFAINPDCPITNLSLGLAYLHRAMQRLSDNRHYQILQGFTFLYRYYDLRVNEGLGEKQEALYNLGKAYHFIGLEHYAVKYYEAVLGLSPMSQGDKMTSSESTVSTTYDFGFEAAYNLRLIYICSGNIKLAFQISSKYLIF
As to B1, the binding entry is “binds”.

The values are drawn from paper PMC4370569.
